Laboratory results taken from publication PMC13121807.
No constants are given. Whether binding was seen depends on the method and setting. In cells and extracts the contact can be indirect. Binding calls can cover weak binding; strength is not graded here. Sequences can lack the tags named with a protein.

T1: NHE2-GFP (human) (UniProt Q9UBY0)
T1 sequence: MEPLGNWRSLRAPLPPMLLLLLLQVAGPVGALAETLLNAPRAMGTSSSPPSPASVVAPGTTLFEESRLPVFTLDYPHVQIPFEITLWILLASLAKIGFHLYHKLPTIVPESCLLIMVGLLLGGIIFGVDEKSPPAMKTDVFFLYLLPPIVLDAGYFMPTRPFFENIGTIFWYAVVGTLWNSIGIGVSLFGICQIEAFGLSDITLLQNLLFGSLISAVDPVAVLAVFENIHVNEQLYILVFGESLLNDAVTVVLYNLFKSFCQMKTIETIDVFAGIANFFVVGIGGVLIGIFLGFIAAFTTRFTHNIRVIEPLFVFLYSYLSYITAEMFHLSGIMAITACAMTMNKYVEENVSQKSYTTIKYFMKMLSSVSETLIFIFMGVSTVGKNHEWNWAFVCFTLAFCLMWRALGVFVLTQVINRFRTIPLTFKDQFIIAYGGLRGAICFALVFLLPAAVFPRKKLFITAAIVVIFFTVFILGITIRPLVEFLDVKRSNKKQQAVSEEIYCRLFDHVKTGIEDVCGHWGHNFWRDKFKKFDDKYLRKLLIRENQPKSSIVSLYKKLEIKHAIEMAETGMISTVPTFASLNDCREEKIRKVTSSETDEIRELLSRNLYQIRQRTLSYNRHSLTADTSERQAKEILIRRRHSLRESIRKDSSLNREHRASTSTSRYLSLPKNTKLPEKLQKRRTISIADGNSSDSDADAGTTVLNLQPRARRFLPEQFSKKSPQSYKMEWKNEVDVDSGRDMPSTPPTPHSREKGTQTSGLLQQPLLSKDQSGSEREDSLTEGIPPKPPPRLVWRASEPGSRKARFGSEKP


Columns and labels:
NHE2-GFP (human) = target: T1, NHE2-GFP (human); test: co-IP; HEK293T cells stably expressing the GFP and DsRed fusions; whole cell lysate (50 mM Tris-HCl pH 7.5, 150 mM NaCl, 1% Igepal CA-630); GFP-Trap magnetic beads or anti-RFP (6G6) on Protein A Dynabeads, 4 °C overnight; blots for GFP and DsRed; normal IgG as negative control
cystinosin-DsRed (human) = test: as above

binding (NHE2-GFP (human))	binding (cystinosin-DsRed (human))	Molecule
binds	–	cystinosin-DsRed (human)
–	binds	NHE2-GFP (protein, UniProt Q9UBY0 1-812) MEPLGNWRSLRAPLPPMLLLLLLQVAGPVGALAETLLNAPRAMGTSSSPPSPASVVAPGTTLFEESRLPVFTLDYPHVQIPFEITLWILLASLAKIGFHLYHKLPTIVPESCLLIMVGLLLGGIIFGVDEKSPPAMKTDVFFLYLLPPIVLDAGYFMPTRPFFENIGTIFWYAVVGTLWNSIGIGVSLFGICQIEAFGLSDITLLQNLLFGSLISAVDPVAVLAVFENIHVNEQLYILVFGESLLNDAVTVVLYNLFKSFCQMKTIETIDVFAGIANFFVVGIGGVLIGIFLGFIAAFTTRFTHNIRVIEPLFVFLYSYLSYITAEMFHLSGIMAITACAMTMNKYVEENVSQKSYTTIKYFMKMLSSVSETLIFIFMGVSTVGKNHEWNWAFVCFTLAFCLMWRALGVFVLTQVINRFRTIPLTFKDQFIIAYGGLRGAICFALVFLLPAAVFPRKKLFITAAIVVIFFTVFILGITIRPLVEFLDVKRSNKKQQAVSEEIYCRLFDHVKTGIEDVCGHWGHNFWRDKFKKFDDKYLRKLLIRENQPKSSIVSLYKKLEIKHAIEMAETGMISTVPTFASLNDCREEKIRKVTSSETDEIRELLSRNLYQIRQRTLSYNRHSLTADTSERQAKEILIRRRHSLRESIRKDSSLNREHRASTSTSRYLSLPKNTKLPEKLQKRRTISIADGNSSDSDADAGTTVLNLQPRARRFLPEQFSKKSPQSYKMEWKNEVDVDSGRDMPSTPPTPHSREKGTQTSGLLQQPLLSKDQSGSEREDSLTEGIPPKPPPRLVWRASEPGSRKARFGSEKP
